Reference: US11230569B2, “Antiplasmodial compounds” (UNIVERSITY OF CENTRAL FLORIDA RESEARCH FOUNDATION, INC., priority 2018, dated 2022)
Some results were stated once for a whole list of compounds, not compound by compound. Square brackets hold non-standard residues; d marks the D form. Peptide text beside a SMILES is read from it. Leu(ol) = CC(C)C[C@H](N)CO; dIva = CC[C@@](C)(N)C(=O)O; Aib = CC(C)(N)C(=O)O

Test system: HepG2 human hepatocytes
Assay type: cell-based
Conditions: Hep G2 cell EC50: P. falciparum EC50; peptaibols
From the text: In the pursuit to discover next generation of antimalarials from novel areas of chemical space, a large library of diverse fungi was screened to discover secondary metabolites active against malaria parasite. […] The Cichewicz fungal collection contains tens of thousands of fungal isolates that were secured from diverse habitats and ecological niches across the United States. It is believed that fungal secondary metabolites, which are underexplored for antimalarial drug discovery, provide a unique opportunity to explore medicinally relevant, but untapped chemical space for the discovery of essential malaria therapeutics. Libraries of 750 pure compounds, and of 460 extracts obtained from diverse fungal sources have been screened for their ability to inhibit intraerythrocytic growth of chloroquine-resistant P. falciparum Dd2 using a SYBR Green I-based fluorescence assay. As a counter screen, the cytotoxicity of the top ten extracts in HepG2 cells was evaluated using the MTS ((3-(4,5 dimethylthiazol-2-yl)-5-(3-carboxymethoxyphenyl)-2-(4-sulfophenyl)-2H-tetrazolium, inner salt) cell proliferation assay. This screening has identified potent and selective novel antiplasmodial compounds. These unique pharmacophores from wide areas of chemical space would provide chemical starting points to develop lead compounds for drugs against malaria.
Cross selectivity for human cells was determined using HepG2 human hepatocytes and an MTS (3-(4,5-Dimethylthiazol-2-yl)-5-(3-carboxymethoxyphenyl)-2-(4-sulfophenyl)-2H-tetrazolium) based cytotoxicity assay. After seeding 2,250 cells per well into 384-well microtiter plates, cells were incubated for 24 h. Next, serial dilutions of compounds were added to the seeded plates and incubated for additional 48 h at 37° C., and 5% CO2. Zero percent growth control wells were incubated with 5% Triton X-100 for 5 min prior to MTS addition and incubated for 4 h at identical growth conditions. Absorbance was then read at 490 nm in a Synergy Neo2 multi-mode reader (BioTek, Winsooki, Vt.) and values were normalized based on detergent lysed and no treatment controls.

| Structure (SMILES) | selectivity index (SI) value |
| --- | --- |
| CC[C@H](C)[C@H](NC(=O)[C@H](C)NC(=O)[C@@H]1CCCN1C(=O)C(C)(C)NC(=O)[C@H](CC(C)C)NC(=O)[C@H](CC(N)=O)NC(=O)C(C)(C)NC(C)=O)C(=O)NC(C)(C)C(=O)N1CCC[C@H]1C(=O)NC(C)(C)C(=O)N[C@@H](CC(C)C)C(=O)NC(C)(C)C(=O)N1CCC[C@H]1C(=O)N[C@H](CO)CC(C)C [Compound 24, harzianin HC XIV] (Ac-[Aib]NL[Aib]PAI[Aib]P[Aib]L[Aib]P[Leu(ol)]) | more than 60 |
| CC[C@H](C)[C@H](NC(=O)[C@H](C)NC(=O)[C@@H]1CCCN1C(=O)C(C)(C)NC(=O)[C@H](CC(C)C)NC(=O)[C@H](CCC(N)=O)NC(=O)[C@@](C)(CC)NC(C)=O)C(=O)NC(C)(C)C(=O)N1CCC[C@H]1C(=O)N[C@](C)(CC)C(=O)N[C@@H](CC(C)C)C(=O)NC(C)(C)C(=O)N1CCC[C@H]1C(=O)N[C@H](CO)CC(C)C [Compound 13, Ac-D-Iva^1-L-Gln^2-L-Leu^3-Aib^4-L-Pro^5-L-Ala^6-L-Ile^7-Aib-L-Pro^9-D-Iva^10-L-Leu^11-Aib^12-L-Pro^13-L-Leuol^14] (Ac-[dIva]QL[Aib]PAI[Aib]P[dIva]L[Aib]P[Leu(ol)]) | more than 60 |
| CC[C@H](C)[C@H](NC(=O)[C@H](C)NC(=O)[C@@H]1CCCN1C(=O)C(C)(C)NC(=O)[C@H](CC(C)C)NC(=O)[C@H](CCC(N)=O)NC(=O)C(C)(C)NC(C)=O)C(=O)NC(C)(C)C(=O)N1CCC[C@H]1C(=O)NC(C)(C)C(=O)N[C@@H](CC(C)C)C(=O)NC(C)(C)C(=O)N1CCC[C@H]1C(=O)N[C@H](CO)CC(C)C [Compound 10, Ac-Aib^1-L-Gln^2-L-Leu^3-Aib^4-L-Pro^5-L-Ala^6-L-Ile^7-Aib^8-L-Pro^9-Aib^10-L-Leu^11-Aib^12-L-Pro^13-L-Leuol^14] (Ac-[Aib]QL[Aib]PAI[Aib]P[Aib]L[Aib]P[Leu(ol)]) | more than 60 |
| CC[C@H](C)[C@H](NC(=O)[C@H](C)NC(=O)[C@@H]1CCCN1C(=O)C(C)(C)NC(=O)[C@H](CC(C)C)NC(=O)[C@H](CCC(N)=O)NC(=O)[C@@](C)(CC)NC(C)=O)C(=O)NC(C)(C)C(=O)N1CCC[C@H]1C(=O)NC(C)(C)C(=O)N[C@@H](CC(C)C)C(=O)NC(C)(C)C(=O)N1CCC[C@H]1C(=O)N[C@H](CO)CC(C)C [Compound 11, Ac-D-Iva^1-L-Gln^2-L-Leu^3-Aib^4-L-Pro^5-L-Ala^6-L-Ile^7-Aib^8-L-Pro^9-Aib^10-L-Leu^11-Aib^12-L-Pro^13-L-Leuol^14] (Ac-[dIva]QL[Aib]PAI[Aib]P[Aib]L[Aib]P[Leu(ol)]) | more than 60 |
| CC[C@H](C)[C@H](NC(=O)[C@H](CC(C)C)NC(=O)[C@H](CCC(N)=O)NC(=O)[C@@](C)(CC)NC(C)=O)C(=O)NC(C)(C)C(=O)N1CCC[C@H]1C(=O)N[C@](C)(CC)C(=O)N[C@@H](CC(C)C)C(=O)NC(C)(C)C(=O)N1CCC[C@H]1C(=O)N[C@H](CO)CC(C)C [Compound 14, Ac-D-Iva^1-L-Gln^2-L-Leu^3-L-Ile^4-Aib^5-L-Pro^6-D-Iva^7-L-Leu^8-Aib^9-L-Pro^10-L-Leuol^11] (Ac-[dIva]QLI[Aib]P[dIva]L[Aib]P[Leu(ol)]) | more than 60 |
